# Laboratory results from PubChem BioAssay AID1259415 (National Center for Advancing Translational Sciences (NCATS), 2018).
# About 18,000 (4.4%) of roughly 410,000 compounds were called active. The shares of active, inactive and inconclusive entries below differ from those in the screen. Rule as the data show it: active = activity change below about -60%; inconclusive = no clear call, values can overlap the other calls; inactive = above about -39%.
# Experiment: qHTS Assay for inhibitors of the human cytomegalovirus (HCMV)
# Details: HFF cells, HCMV-luciferase reporter, 72 h; at 57.5 µM; stronger effect = lower value
# Method in brief: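 Cell-based, HFFs, 1000 cells/well, 16 h 37C; cpds in DMSO + HCMV-luc, MOI 1 PFU/cell; 72 h 37C; OneGlo luminescence after 5 min RT; norm. to buffer vs Salinomycin 10uM.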
# % is scaled to controls: 0 for no effect and ±100 for the full control effect.
row,Compound,"activity change, negative = inhibition"
1,O=C(O)c1ccc(NC(=S)NC(=O)c2cncc(Br)c2)cc1,inconclusive: -47.5%
2,O=C(Nc1ccc2nc(C3CC3)n(Cc3ccc(F)cc3)c(=O)c2c1)c1ccco1,active: -69.3%
3,Cc1ccc(OCC(=O)Nc2ccc(Cl)c(-c3nc4ccccc4[nH]3)c2)cc1C,inactive: -26.2%
4,O=c1nc2scc(-c3ccccc3)n2c2ccccc12,inconclusive: -57.1%
5,O=C(Nc1cccc(O)c1)c1cc(S(=O)(=O)N2CCCC2)ccc1Cl,inconclusive: -50.4%
6,Cc1nnc(SCCCOc2ccccc2)nc1C,inactive: -17.7%
7,Cn1ncc2cc3c(Nc4ccc(Cl)cc4)cccc3nc21,inconclusive: -49.4%
8,NC(=O)Cn1c(=O)n(Cc2ccco2)c(=O)c2c3c(sc21)CCCCC3,inactive: -21%
9,CN(C)[C@@H]1C(=O)C(C(N)=O)=C(O)[C@@]2(O)C(=O)C3=C(O)c4c(O)cccc4[C@@](C)(O)C3[C@H](O)C12 (some centres not stated),inactive: -11.6%
10,CC(C)NC(=O)CCn1nc(-c2ccc(Cl)cc2)c2ccccc2c1=O,inconclusive: -53.6%
11,CCCCC(=O)N(Cc1ccc(F)cc1)C1CCS(=O)(=O)C1 (configuration not stated),inconclusive: -54.1%
12,Cc1ccc(Cn2cc(CCC(=O)NCc3ccccc3F)c3ccccc32)cc1,inconclusive: -52.4%
13,O=C(COc1ccccc1)NC(=S)Nc1cccc2c(O)cccc12,inconclusive: -48.4%
14,O=C(NCCS(=O)(=O)N1CCN(c2ccccc2F)CC1)c1ccc(Br)o1,inconclusive: -45.5%
15,CCCC[n+]1ccn(-c2nc3ccccc3nc2[N-]S(=O)(=O)c2ccc(C)cc2)c1,inactive: 4.07%
16,Cc1ccc(C(=O)c2cc([N+](=O)[O-])ccc2N2CCCCC2)c(C)c1,active: -91.9%
17,CC(Cc1ccccc1)C(=O)N(C)Cc1cccnc1 (configuration not stated),inconclusive: -40.8%
18,O=C(Nc1ccccc1)c1ccc2c(c1)OCCO2,inactive: 21.2%
19,COc1ccc(-n2c(C)cc(C(=O)CN3CCCCC3)c2C)cc1,inconclusive: -43.8%
20,O=C(CCC1CCCN(C(=O)Cc2ccc(F)cc2)C1)N1CCN(c2ccccn2)CC1 (configuration not stated),inconclusive: -54.1%
21,Cc1cc(NC(=O)CN2CCCC(C)C2)no1 (configuration not stated),inconclusive: -50.4%
22,COc1ccc(NC(=O)C2=CC(c3ccc(OC)c(OC)c3)=NS(=O)(=O)N2C)cc1,active: -70.9%

row,Compound,"activity change, negative = inhibition"
1,Cc1ccc(S(=O)(=O)N(CC(=O)NC2CC2)c2ccc(C)c(Cl)c2)cc1,inconclusive: -42.4%
2,Cc1cc(C)c2c(n1)SCCN2C(=O)Nc1ccc(C(=O)Nc2cc(Cl)ccc2C)cc1,inconclusive: 0%
3,COc1cccc(-c2n[nH]c3ccnc(-c4cccc(C(C)=O)c4)c23)c1,inactive: -21.2%
4,S=C(Nc1ccc(OCc2ccccc2)cc1)Nc1cccc(Cl)c1Cl,inconclusive: -48.6%
5,Cc1ccc(S(=O)(=O)NCCC(c2ccccc2)c2ccccc2)cc1C(=O)O,inconclusive: -46.2%
6,Cc1ccc(-c2noc(CCC(=O)NCCN3CCN(Cc4ccccc4)CC3)n2)cc1,inconclusive: -41.3%
7,Cc1ccc(N2CC(C(=O)NCCN3CCOCC3)CC2=O)cc1C (configuration not stated),inconclusive: -49.8%
8,Cc1ccc(C(=O)NC(=S)Nc2ccc(CN3CCCCC3)cc2)c(C)c1,inconclusive: -42.5%
9,CCOc1ccccc1CNC(=O)CCc1cn(Cc2ccc(Cl)cc2)c2ccccc12,inconclusive: -52.7%
10,CC(NC(=O)c1cc(-c2ccc(Br)cc2)on1)c1ccccc1 (configuration not stated),inconclusive: -46.4%
11,C=CCOC(=O)C1=C[C@H](c2coc3ccccc3c2=O)[C@@H](CCCO)[C@H](OCC)O1,inactive: -3.78%
12,Cc1n[nH]c(C)c1S(=O)(=O)N(CC(=O)NCc1ccccc1Cl)c1ccc(C(C)C)cc1,inconclusive: -42.1%
13,N#C/C(=C\Nc1ccc2cn[nH]c2c1)c1nc(-c2ccccc2)cs1,inactive: 36.9%
14,COc1ccc(/C=N/NC(=O)Cn2cc(C(F)(F)F)ccc2=O)cc1,inconclusive: -44.3%
15,O=C(Nc1ccc2c(c1)N(C1CCCC1)C(=O)c1ccccc1S2)c1cccc(F)c1,inconclusive: -59%
16,COc1ccc(CNC(=O)C2(C)Cc3c(-c4ccc5c(c4)OCO5)ccnc3O2)cc1OC (configuration not stated),inconclusive: -42.7%
17,Cc1nc(SC(C(=O)c2ccccc2)c2ccccc2)nc2ccccc12 (configuration not stated),inactive: -11.3%
18,CCC(C)NC(=O)CSc1nc2scc(-c3ccccc3)c2c(=O)[nH]1 (configuration not stated),inactive: 40.2%
19,O=[N+]([O-])c1cccnc1Sc1ccc(F)cc1,inconclusive: -54.4%
20,CC(=O)c1sc(Nc2ccc(C)cc2)nc1C,inconclusive: -45.1%
21,CCN1CCN(c2ccc(S(=O)(=O)N3CCOCC3)cc2NC(=O)/C=C/c2ccc([N+](=O)[O-])cc2)CC1,inactive: 7.42%
22,Fc1ccc(OCc2nn[nH]n2)c(F)c1,inactive: -32%

# 4 of these compounds in a different format:
row | Compound | activity change, negative = inhibition
5 | Cc1ccc(S(=O)(=O)NCCC(c2ccccc2)c2ccccc2)cc1C(=O)O | inconclusive: -46.2%
15 | O=C(Nc1ccc2c(c1)N(C1CCCC1)C(=O)c1ccccc1S2)c1cccc(F)c1 | inconclusive: -59%
18 | CCC(C)NC(=O)CSc1nc2scc(-c3ccccc3)c2c(=O)[nH]1 (configuration not stated) | inactive: 40.2%
20 | CC(=O)c1sc(Nc2ccc(C)cc2)nc1C | inconclusive: -45.1%

# Further entries

row,Compound,"activity change, negative = inhibition"
1,Cc1ccc(C2CC(c3cccs3)=NN2C(=O)CSC2=NN3CCCC(=O)N=C3S2)cc1 (configuration not stated),inactive: -3.28%
2,Cc1cc([N+](=O)[O-])nn1CCCC(=O)NCc1ccc(F)cc1,inconclusive: -41.5%
3,Cc1ccc(C)c(OCCn2cc(/C=C(/C#N)C(=O)NCC3CCCO3)c3ccccc32)c1 (configuration not stated),inactive: -4.88%
4,CCCN1C2CCCC1CC(NC(=S)Nc1cccc(C)c1C)C2 (configuration not stated),inconclusive: -50.1%
5,COc1cc(OC)cc(-c2cc(N3C(=O)Nc4ccccc4N3O)n[nH]2)c1,inconclusive: -44.5%
6,N=C1C(c2ccc(Br)cc2)=C(O)C2CCc3ccccc3N12 (configuration not stated),inconclusive: -40.2%
7,Cc1ccccc1-c1cnc(C(O)c2ccc(Cl)cc2)[nH]1 (configuration not stated),inactive: 19.1%
8,COCCNc1nc(NCc2ccc(C(C)C)cc2)c2sccc2n1,inconclusive: -51.8%
9,COc1cccc(NC(=O)Nc2ccc3nsnc3c2)c1,inconclusive: -46.3%
10,NC(=O)c1nsc(C(=O)N(c2ccccc2)C(C(=O)NCC2CCCO2)c2ccc(F)cc2)c1N (configuration not stated),inconclusive: -40.9%
11,CN(Cc1ccccc1)C(=O)CCC1CCN(C(=O)c2ccccc2C(F)(F)F)CC1,inconclusive: -52.6%
12,C=CCn1c(NCc2c[nH]c3ccccc23)nc2ccccc21,inactive: 78.1%
13,O=C(O)/C=C/c1cccc(NC(=O)c2ccc(Cl)cc2)c1,inactive: -14.5%
14,COc1ccccc1N1CCN(CC(=O)Nc2ccnn2C2CCCC2)CC1,inactive: -12%
15,O=C(Nc1ccc(F)cc1F)NC1CCN(S(=O)(=O)c2ccc(F)cc2)CC1,inconclusive: -46%
16,Cc1nn(C)c(C)c1CNC(=O)c1cnn2c1NC(c1ccccc1)CC2C(F)(F)F (configuration not stated),inconclusive: -40.3%
17,Cc1noc2ncnc(SCc3ccc(C(F)(F)F)cc3)c12,inconclusive: -43.6%
18,NC(=O)c1nsc(C(=O)N(Cc2ccc(F)cc2)C(C(=O)NC2CCCC2)c2ccco2)c1N (configuration not stated),inconclusive: -51.9%
19,Cc1ccccc1C1=NOC2CN(C(=O)/C=C/c3ccccc3)CC12 (configuration not stated),inactive: -11%
20,COc1ccc(CNCCC(c2ccc(OC)cc2)c2ccccc2OC)cc1 (configuration not stated),inconclusive: -50.6%
22,CC(=O)CC(=O)Nc1ncccn1,inconclusive: -44.2%

row,Compound,"activity change, negative = inhibition"
1,CC(=O)Nc1ccc(/C(C)=N/Nc2nc(N3CCOCC3)nc(N3CCOCC3)n2)cc1,inactive: -22.3%
2,O=C1CC(c2ccco2)CC(O)=C1C=NCCN1CCNCC1 (configuration not stated),inactive: 64.7%
3,Cc1ccc(-c2nc(-c3cccnc3)sc2CC(=O)Nc2ccc(C)c(Cl)c2)cc1,inconclusive: -49.3%
4,COc1ccc(-c2csc(NC(=O)c3ccccc3S(C)(=O)=O)n2)cc1,inconclusive: -56.8%
5,CC(=O)N1CCN(c2ccc(NCc3cccs3)cc2)CC1,inconclusive: -58%
6,COc1ccc(NC(=O)c2cc(C3CC3)nc3c2cnn3C(C)C)cc1OC,inconclusive: 0%
7,CCN(CC)CCOC(=O)C(c1ccccc1)C1CCCCC1 (configuration not stated),inconclusive: -49.1%
8,O=C(Cn1cnc2c(nnn2Cc2ccccc2F)c1=O)N1CCN(c2ccccc2)CC1,inconclusive: -40.1%
9,Cc1cc(C(=O)CSc2nnc(C3CC3)n2C2CC2)c(C)n1C(C)C,inactive: 86%
10,COc1ccc(CCNC(=O)CSc2nc(=O)n3cc(C)ccc3n2)cc1OC,inactive: 15.4%
11,COC(=O)c1cc(S(=O)(=O)NCc2ccc(S(N)(=O)=O)cc2)oc1C,inconclusive: -52.7%
12,CCN(Cc1ccc(OC)c(F)c1)C(=O)CCl,inconclusive: -40.7%
13,CCOc1cccc(CNc2ccc(O)cc2)c1OCc1ccccc1Cl,inconclusive: -47.2%
14,Cc1ccc(C)c(S(=O)(=O)N2CCN(C(=O)CNC(=O)c3ccc4ccccc4c3)CC2)c1,inconclusive: -47.9%
15,Cc1ccccc1OCC(=O)N/N=C1\SCC(=O)N1Cc1ccccc1,inconclusive: -45.2%
16,CNC(=S)Nc1cc(OC)ccc1OC,inconclusive: -50.4%
17,CC1CCC(C(C)C)C(OC(=O)C[n+]2cc(-c3ccc(Cl)cc3)n3c2CCC3)C1 (configuration not stated),inconclusive: -46.1%
18,O=C(CNC(=O)c1ccc(Br)o1)Nc1cccc(-c2cnc3ccccc3n2)c1,inconclusive: -45.3%
19,COc1ccccc1CNC(=O)C(C)n1nc(C)n2c(cc3occc32)c1=O (configuration not stated),inconclusive: -52.8%
20,O=C(NCC1CCCN(C(=O)c2cccc(C(F)(F)F)c2)C1)c1ccc(F)cc1 (configuration not stated),inactive: -12.1%
21,CCOc1ccc(-c2nc(CSCC(=O)NC3CC3)c(C)o2)cc1,inconclusive: -56.1%
